Measurements: patent US7126676B2, “Spectral analysis of light scattered from clotting blood” (priority 2002, dated 2006)
At least one compound was matched to its structure with a doubt left.

Key:
clotting = details: cited from earlier work
[1] = system: clotting native whole blood; details: all wavelengths of the table

Cc1ccc(-c2cc(C(F)(F)F)nn2-c2ccc(S(N)(=O)=O)cc2)cc1 [Celecoxib]
Effect on clotting as measured by routine techniques (clotting): Neither rofecoxib nor celecoxib has any effect on clotting
Effect on clotting as determined by the invention, in words [1]: opposite to that of aspirin
